The values that follow come from patent US5849477.

Chains of the proteins cited; added tags and fusions are not shown. A line that says so, or that is headed by a name, gives the form on record, which may keep a tag or linker.
COUP-TF beta-galactosidase fusion (lambda gt11 clone) (Homo sapiens), one chain, as listed by the source: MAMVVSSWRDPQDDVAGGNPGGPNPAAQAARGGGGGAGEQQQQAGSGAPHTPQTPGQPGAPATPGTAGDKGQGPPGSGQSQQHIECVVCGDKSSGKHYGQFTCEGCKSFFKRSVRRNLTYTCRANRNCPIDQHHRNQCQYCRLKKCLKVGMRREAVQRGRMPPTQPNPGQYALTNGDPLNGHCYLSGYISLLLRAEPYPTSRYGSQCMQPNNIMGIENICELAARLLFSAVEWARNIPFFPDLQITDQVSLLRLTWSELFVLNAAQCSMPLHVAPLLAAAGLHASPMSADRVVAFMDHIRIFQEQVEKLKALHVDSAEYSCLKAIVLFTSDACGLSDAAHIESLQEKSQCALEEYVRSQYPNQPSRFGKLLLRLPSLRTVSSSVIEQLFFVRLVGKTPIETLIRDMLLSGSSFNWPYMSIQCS

For at least one entry, the source does not settle the construct or the ends of the probe. For part of these data: A negative result means that nothing was seen under these conditions. For part of these data: A weaker result is weaker than the reference pair of the same experiment. For part of these data: Where cells or extracts were used, other partners may take part.

In one series the test system is estrogen receptor. As to the kind of experiment: footprint. Conditions: weak DNase I footprint distinct from COUP-TF, vast excess of receptor, 100-fold molar excess COUP oligo did not compete for ER binding to its cognate element, letters built from the parent sequence and the stated change.
Another series has as its system progesterone receptor. Nature of the series: competition with a labelled probe. Conditions: [-]; 100-fold molar excess COUP oligo did not compete for PR binding to its cognate element; letters built from the parent sequence and the stated change.
Series [1] deals with COUP-TF beta-galactosidase fusion (lambda gt11 clone) (Homo sapiens). As to the kind of experiment: competition with a labelled probe. Conditions: unlabeled oligo abolished complexes with ovalbumin probe; protein in a lysate after overexpression.

With “TATGGTGTCAAAGGTCAAACTT (double strand) [COUP oligonucleotide (ovalbumin), ER/PR experiments]”, the figures for the binding result with estrogen receptor and with progesterone receptor were “binds more weakly” and “no binding”, respectively. “TCTATGGTGTCAAAGCTCAAACTTCTGA (double strand) [ovalbumin COUP wild-type oligonucleotide (-91 to -64)]”: the binding result in series [1] is “binds”.
